Measurements published in patent US20230174672A1.
No constants are given. Whether binding was seen depends on the method and setting. Some entries that bind do so weakly or less than the wild type.

Protein sequences, listed by entry. Tags and fused reporters are not part of them. Lines headed by an entry give the natural chain unless they say otherwise; changes in a name come on top. Residues count along the entry.
UniProt P07225: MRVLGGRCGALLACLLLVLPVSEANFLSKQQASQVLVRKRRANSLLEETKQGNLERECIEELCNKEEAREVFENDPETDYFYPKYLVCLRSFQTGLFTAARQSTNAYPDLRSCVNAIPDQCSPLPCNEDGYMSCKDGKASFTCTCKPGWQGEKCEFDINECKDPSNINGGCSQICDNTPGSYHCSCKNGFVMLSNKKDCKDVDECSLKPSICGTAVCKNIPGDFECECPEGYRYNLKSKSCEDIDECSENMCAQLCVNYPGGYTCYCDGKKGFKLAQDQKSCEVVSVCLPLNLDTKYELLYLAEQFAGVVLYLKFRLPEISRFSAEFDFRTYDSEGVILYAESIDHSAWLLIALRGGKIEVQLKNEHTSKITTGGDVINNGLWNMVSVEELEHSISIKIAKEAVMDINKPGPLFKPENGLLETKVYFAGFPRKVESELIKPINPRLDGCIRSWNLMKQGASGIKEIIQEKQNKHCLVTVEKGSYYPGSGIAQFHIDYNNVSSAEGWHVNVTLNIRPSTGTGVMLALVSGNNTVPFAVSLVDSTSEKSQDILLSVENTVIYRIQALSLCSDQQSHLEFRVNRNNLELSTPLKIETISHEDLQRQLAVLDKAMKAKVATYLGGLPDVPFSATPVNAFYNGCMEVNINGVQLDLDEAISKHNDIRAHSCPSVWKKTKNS
UniProt P10646, residues 29-282: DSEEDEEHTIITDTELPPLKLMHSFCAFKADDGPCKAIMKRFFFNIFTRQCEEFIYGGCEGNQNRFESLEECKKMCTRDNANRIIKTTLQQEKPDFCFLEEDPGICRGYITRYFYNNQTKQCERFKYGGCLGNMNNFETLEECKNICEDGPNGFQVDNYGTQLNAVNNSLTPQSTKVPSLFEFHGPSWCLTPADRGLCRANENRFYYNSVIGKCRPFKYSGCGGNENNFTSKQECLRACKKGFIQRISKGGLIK

Molecular target: human Protein S (human) (UniProt P07225)
Test: Octet (BLI): human Protein S held by the control antibody on an anti-hIgG probe, then 10 ug/ml human TFPI, then buffer wash

## human TFPI (from UniProt P10646 29-282)
  binding: binds
